No constants are given. Whether binding was seen depends on the method and setting. Some results given as binding are weak or reduced against the parent protein; the word gives no strength.
Experiments:
[1] = target: Flag tagged recombinant DLL3 (Adipogen) (UniProt Q9NYJ7); assay: flow cytometry; staining of CAR T cells with Flag tagged recombinant DLL3 and PE anti-Flag antibodies (FIG. 5B)
[2] = target: Flag tagged recombinant DLL3 (Adipogen) (UniProt Q9NYJ7); assay: flow cytometry; staining of CAR T cells with soluble DLL3 (FIG. 2A bottom panels, FIG. 2E)
[3] = target: Flag tagged recombinant DLL3 (Adipogen) (UniProt Q9NYJ7); assay: flow cytometry; CAR T cells incubated with 1 ug/ml Flag tagged recombinant DLL3, then PE anti-Flag antibodies

Amino acid sequences for entries named in this document (tags omitted). Residues count along the entry.
UniProt Q9NYJ7, residues 27-492: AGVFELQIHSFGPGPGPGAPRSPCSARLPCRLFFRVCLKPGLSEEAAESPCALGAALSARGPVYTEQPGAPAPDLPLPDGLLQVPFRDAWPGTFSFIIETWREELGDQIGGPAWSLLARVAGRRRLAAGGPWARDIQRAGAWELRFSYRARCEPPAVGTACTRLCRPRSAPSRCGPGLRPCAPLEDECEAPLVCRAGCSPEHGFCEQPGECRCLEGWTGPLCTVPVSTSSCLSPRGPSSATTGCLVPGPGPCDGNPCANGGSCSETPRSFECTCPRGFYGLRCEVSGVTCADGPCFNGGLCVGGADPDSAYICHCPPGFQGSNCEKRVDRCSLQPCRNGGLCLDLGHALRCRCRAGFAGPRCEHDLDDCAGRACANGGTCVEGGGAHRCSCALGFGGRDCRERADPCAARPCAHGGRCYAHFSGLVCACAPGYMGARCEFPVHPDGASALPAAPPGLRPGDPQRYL

Measured: binding

B1: DLL3 CAR 10G1-K, conventional (comprising wildtype CD3ζ ITAM-containing domain), expressed on primary human T cells (protein, not shown: large carriers)
chain: EVQLLESGGGLVQPGGSLRLSCAASGFTFSSYAMNWVRQAPGKGLEWVSTISGSGGSTYYADSVKGRFTISRDNSKNTLYLQMNSLRAEDTAVFYCAIDPEYYDILTGGDYWGQGTLVTVSSGGGGSGGGGSGGGGSGGGGSDIQMTQSPSAMSASVGDRVTITCRASQGISNYLAWFQQKPGKVPKRLIYAASSLQSGVPSRFSGSGSGTEFTLTISSLQPEDFATYFCLQHDSFPLTFGGGTKVEIK
binds: [1] | [2] | [3]

Reference: patent US20220023346A1
